# Inconclusive results, whose numbers are uncertain, are shown with a selection of clear calls. For part of these data: Potencies of inconclusive entries are doubtful fits and often do not repeat. Active and inactive are the calls of the source. Calls come from the whole dose curve; as a rule, active = well fitted curve in the direction sought with a large enough effect; inconclusive = small, poorly fitted or top-dose-only effect, or another doubt; inactive = no such curve, though single readings can be large; an effect the other way counts as inactive or inconclusive.
# Chains of the proteins cited; added tags and fusions are not shown. Lines headed by an entry give the natural chain unless they say otherwise; changes in a name come on top.
# UniProt Q14191, whole entry, looked up: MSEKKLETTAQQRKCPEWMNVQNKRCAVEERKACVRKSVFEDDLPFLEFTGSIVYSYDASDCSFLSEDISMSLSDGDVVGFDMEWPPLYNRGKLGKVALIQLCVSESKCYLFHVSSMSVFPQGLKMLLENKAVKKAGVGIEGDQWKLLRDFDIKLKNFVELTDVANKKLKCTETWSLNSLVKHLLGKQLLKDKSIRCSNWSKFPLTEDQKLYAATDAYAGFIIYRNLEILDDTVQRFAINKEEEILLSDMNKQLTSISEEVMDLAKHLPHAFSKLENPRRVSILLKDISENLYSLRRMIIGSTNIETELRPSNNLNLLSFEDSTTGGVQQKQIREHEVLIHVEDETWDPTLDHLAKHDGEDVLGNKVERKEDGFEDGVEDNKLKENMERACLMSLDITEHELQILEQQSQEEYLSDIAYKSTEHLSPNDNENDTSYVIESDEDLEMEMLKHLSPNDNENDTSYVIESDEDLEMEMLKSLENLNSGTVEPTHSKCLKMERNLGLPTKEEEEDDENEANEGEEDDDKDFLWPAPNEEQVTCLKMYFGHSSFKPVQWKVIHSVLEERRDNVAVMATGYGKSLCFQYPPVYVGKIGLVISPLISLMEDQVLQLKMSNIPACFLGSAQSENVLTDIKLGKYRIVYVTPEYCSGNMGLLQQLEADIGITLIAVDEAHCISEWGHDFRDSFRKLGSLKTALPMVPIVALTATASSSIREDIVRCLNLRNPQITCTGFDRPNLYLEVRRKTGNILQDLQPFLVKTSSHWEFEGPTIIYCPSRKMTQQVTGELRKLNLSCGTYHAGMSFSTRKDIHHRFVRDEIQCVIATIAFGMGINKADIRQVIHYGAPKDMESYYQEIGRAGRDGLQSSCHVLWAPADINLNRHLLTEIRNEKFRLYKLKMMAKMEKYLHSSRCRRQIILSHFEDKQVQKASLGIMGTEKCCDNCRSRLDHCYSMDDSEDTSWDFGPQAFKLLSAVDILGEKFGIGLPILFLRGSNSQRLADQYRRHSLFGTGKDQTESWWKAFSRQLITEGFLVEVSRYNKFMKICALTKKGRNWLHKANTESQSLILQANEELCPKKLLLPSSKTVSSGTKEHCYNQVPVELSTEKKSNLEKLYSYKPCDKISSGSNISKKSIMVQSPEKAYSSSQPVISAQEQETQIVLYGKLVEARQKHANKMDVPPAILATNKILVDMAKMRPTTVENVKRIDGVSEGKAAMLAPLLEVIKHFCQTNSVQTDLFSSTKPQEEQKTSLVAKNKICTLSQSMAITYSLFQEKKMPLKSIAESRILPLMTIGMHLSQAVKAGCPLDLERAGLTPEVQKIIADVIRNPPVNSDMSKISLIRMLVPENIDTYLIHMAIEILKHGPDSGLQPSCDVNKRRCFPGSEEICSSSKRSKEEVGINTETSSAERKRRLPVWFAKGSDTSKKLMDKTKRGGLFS
# UniProt P54132: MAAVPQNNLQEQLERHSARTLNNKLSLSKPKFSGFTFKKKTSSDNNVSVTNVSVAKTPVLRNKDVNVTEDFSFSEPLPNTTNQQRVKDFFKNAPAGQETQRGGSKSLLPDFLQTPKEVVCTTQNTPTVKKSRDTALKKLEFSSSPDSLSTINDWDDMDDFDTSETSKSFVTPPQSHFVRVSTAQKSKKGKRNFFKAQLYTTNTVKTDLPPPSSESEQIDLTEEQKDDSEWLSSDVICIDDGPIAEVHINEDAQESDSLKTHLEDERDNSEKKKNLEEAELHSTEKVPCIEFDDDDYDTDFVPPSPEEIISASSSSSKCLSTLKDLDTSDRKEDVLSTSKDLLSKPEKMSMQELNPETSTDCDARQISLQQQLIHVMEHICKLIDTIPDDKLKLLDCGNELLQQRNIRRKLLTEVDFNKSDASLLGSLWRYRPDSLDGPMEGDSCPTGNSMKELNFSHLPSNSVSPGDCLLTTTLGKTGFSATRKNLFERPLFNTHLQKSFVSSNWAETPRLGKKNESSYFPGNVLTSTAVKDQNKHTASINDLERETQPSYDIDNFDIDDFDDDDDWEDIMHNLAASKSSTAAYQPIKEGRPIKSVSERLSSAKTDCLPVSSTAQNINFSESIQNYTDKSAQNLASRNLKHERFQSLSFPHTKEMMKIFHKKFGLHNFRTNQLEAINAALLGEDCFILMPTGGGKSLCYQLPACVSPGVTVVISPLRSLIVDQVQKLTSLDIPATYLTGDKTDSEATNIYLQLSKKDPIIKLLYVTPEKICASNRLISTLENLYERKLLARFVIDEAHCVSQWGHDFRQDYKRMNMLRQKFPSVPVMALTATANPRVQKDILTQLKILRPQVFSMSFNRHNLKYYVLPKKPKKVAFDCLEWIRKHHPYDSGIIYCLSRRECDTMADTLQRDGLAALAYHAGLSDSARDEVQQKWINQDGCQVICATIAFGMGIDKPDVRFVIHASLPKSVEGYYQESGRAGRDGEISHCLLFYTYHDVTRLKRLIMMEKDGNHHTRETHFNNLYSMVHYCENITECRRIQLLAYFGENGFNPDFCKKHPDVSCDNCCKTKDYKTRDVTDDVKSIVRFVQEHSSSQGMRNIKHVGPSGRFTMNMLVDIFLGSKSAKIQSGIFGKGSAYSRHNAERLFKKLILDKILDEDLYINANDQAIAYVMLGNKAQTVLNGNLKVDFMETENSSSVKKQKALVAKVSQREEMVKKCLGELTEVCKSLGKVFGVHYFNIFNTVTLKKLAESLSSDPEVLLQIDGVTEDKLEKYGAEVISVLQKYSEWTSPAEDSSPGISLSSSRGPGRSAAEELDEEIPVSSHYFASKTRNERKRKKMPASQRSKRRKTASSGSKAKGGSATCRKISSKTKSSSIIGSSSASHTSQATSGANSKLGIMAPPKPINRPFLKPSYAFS
# UniProt P39748, whole entry, looked up: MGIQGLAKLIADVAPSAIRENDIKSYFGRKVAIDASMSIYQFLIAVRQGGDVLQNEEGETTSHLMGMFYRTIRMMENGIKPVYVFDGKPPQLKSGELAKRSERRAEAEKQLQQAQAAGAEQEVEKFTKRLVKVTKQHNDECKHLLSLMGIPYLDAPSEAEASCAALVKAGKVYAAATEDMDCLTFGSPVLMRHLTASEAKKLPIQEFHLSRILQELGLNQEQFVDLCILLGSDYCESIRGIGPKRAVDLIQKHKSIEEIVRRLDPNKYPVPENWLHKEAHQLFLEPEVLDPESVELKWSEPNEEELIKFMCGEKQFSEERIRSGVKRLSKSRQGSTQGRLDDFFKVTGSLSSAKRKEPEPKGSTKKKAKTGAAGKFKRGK
# What was measured:
# [1] = biological target: Bifunctional 3'-5' exonuclease/ATP-dependent helicase WRN (Homo sapiens) (UniProt Q14191); experiment: qHTS for Inhibitors of WRN Helicase: Confirmatory Assay for Cherry-picked Compounds. (AID 720497); note: nearly all actives have a fitted effect of over 65% in size
# Method in brief: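 WRN at 20 nM final was preincubated with compound for 15 min at room temperature; the reaction was started with 100 nM forked duplex oligonucleotide and 2 mM ATP (final). Red fluorescence (ex 525/em 598 nm) was read kinetically, with inhibition normalized to enzyme-only and buffer-only wells.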
# [2] = biological target: RecQ-like DNA helicase BLM (Homo sapiens) (UniProt P54132); experiment: qHTS for Inhibitors of WRN Helicase: BLM Helicase Counterscreen for WRN Inhibitors (AID 720503); details: Recombinant BLM helicase DNA unwinding, red fluorescence; series mostly up to 57.1 µM; note: nearly all actives have a fitted effect of over 60% in size
# Method in brief: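 BLM at 1 nM was preincubated with compound for 15 min at room temperature in 25 mM Tris-HCl pH 8.0, 50 mM NaCl, 2 mM MgCl2, 1 mM DTT and 0.01% Tween-20. Unwinding was started with 100 nM DNA and 2 mM ATP (final). Fluorescence (ex 525/em 598 nm) was read twice, 15 min apart, and normalized to enzyme-free and DMSO controls.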
# [3] = qHTS for Inhibitors of WRN Helicase: Thiazole Orange DNA Binding Counterscreen (AID 720499);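 note: drop in dye fluorescence marks compound binding to DNA; nearly all actives have a fitted effect of over 60% in size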
# Method in brief: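 Here, compounds that displace thiazole orange (100 nM) from unlabeled DNA (50 nM) lower fluorescence, read at excitation 480 nm and emission 530 nm after a 15 min room-temperature incubation.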
# [4] = biological target: Flap endonuclease 1 (Homo sapiens) (UniProt P39748); experiment: qHTS Assay for the Inhibitors of FEN1: Confirmatory Assay for Cherry-picked Compounds (AID 720498); details: FEN1 flap cleavage, TAMRA/BHQ2 fluorogenic DNA substrate; note: nearly all actives have a fitted effect of over 60% in size
# Method in brief: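 Human FEN1 (10 nM reagent) was preincubated with compounds for 15 min at room temperature, then 50 nM final double-flap DNA substrate (5'-TAMRA flap, BHQ-2 quencher strand) was added. Fluorescence (ex 525/em 598 nm) was read at 0 and 15 min.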
# Potency is the fitted concentration of half-maximal effect.
smiles,measurement,setting,value
CN1/C(=C\C(=O)c2ccco2)C(C)(C)c2ccccc21,Potency,[1],inactive
same,Potency,[2],inactive
CSc1nc(SCCO)c2sc3nc(-c4ccco4)c4c(c3c2n1)CC(C)(C)OC4,Potency,[1],active: 7.64 µM
same,Potency,[3],active: 15.2 µM
COC(=O)c1c(NC(=O)CCCOc2cccc(C)c2)sc2c1C(C(=O)OC)CC2 (centres undefined),Potency,[1],inactive
same,Potency,[2],"inconclusive: 24.1 µM [inhibitor, partial curve]"
CN1CCN(C(=O)C2CCCN(S(=O)(=O)c3ccc(Cl)cc3)C2)CC1 (centres undefined),Potency,[1],inactive
same,Potency,[2],"inconclusive: 21.5 µM [inhibitor, partial curve]"
COc1cc(/C=N/NC(=O)c2ccc3c(c2)OCCO3)c(Br)c(Br)c1O,Potency,[1],"inconclusive: 21.5 µM [inhibitor, partial curve]"
same,Potency,[2],"inconclusive: 24.1 µM [inhibitor, partial curve]"
COc1cc2cc(-c3ccc(O)cc3O)nc(C)c2cc1OC,Potency,[4],"inconclusive: 33.8 µM [inhibitor, partial curve]"
N#CC1C(=O)c2ccccc2C1c1ccccc1 (centres undefined),Potency,[1],inactive
same,Potency,[2],inactive
O=c1cc(N2CCNCC2)nc2sc(-c3ccncc3)nn12,Potency,[1],active: 6.07 µM
same,Potency,[2],active: 1.21 µM
CN(C)c1nc(Nc2ccc(Cl)c(Cl)c2)nc(N(C)C)n1,Potency,[1],inactive
same,Potency,[2],inactive
Cn1cnc([N+](=O)[O-])c1S(=O)(=O)Oc1cccc2ccccc12,Potency,[1],"inconclusive: 12.1 µM [inhibitor, partial curve]"
same,Potency,[2],"inconclusive: 2.15 µM [inhibitor, full curve]"
Cc1ccc(-c2cc(C(=O)Nc3ccc(S(=O)(=O)Nc4ncccn4)cc3)[nH]n2)c(O)c1C,Potency,[4],"inconclusive: 84.9 µM [inhibitor, partial curve]"
COc1ccc(OC)c(-n2c(=O)c3ccccc3c3ccccc3c2=O)c1,Potency,[1],inactive
same,Potency,[2],"inconclusive: 21.5 µM [inhibitor, partial curve, poor fit]"
CN(C)c1ccc(C=Cc2nccc3ccccc23)cc1,Potency,[1],"inconclusive: 21.5 µM [inhibitor, partial curve]"
same,Potency,[2],"inconclusive: 21.5 µM [inhibitor, partial curve]"
COc1cc(/C=C2/C(=O)NN(c3cccc(C)c3)C2=O)ccc1OC(=O)c1ccco1,Potency,[1],"inconclusive: 21.5 µM [inhibitor, partial curve, poor fit]"
same,Potency,[2],"inconclusive: 27.1 µM [inhibitor, partial curve, poor fit]"
COc1ccc(OC)c(NC(=O)COC(=O)CCc2nc3ccccc3c(=O)[nH]2)c1,Potency,[1],"inconclusive: 30.4 µM [inhibitor, partial curve, poor fit]"
same,Potency,[2],"inconclusive: 24.1 µM [inhibitor, partial curve]"
CNc1ccccc1C(C)(C)c1cc(-c2cccc(Br)c2)no1,Potency,[1],"inconclusive: 27.1 µM [inhibitor, single point]"
same,Potency,[2],"inconclusive: 27.1 µM [inhibitor, partial curve]"
Cc1ccc(CN(C)C(=O)CCc2nc3sc4c(c3c(=O)[nH]2)CCCC4)o1,Potency,[1],"inconclusive: 9.61 µM [inhibitor, partial curve]"
same,Potency,[2],"inconclusive: 17.1 µM [inhibitor, partial curve]"
COC(=O)C(CC(=O)c1ccc(Br)cc1)n1ccnc1 (centres undefined),Potency,[1],inactive
same,Potency,[2],"inconclusive: 24.1 µM [inhibitor, partial curve]"
CCc1ccc2nc3nc(C)cc(C)c3c(N)c2c1,Potency,[4],"inconclusive: 60.1 µM [inhibitor, partial curve]"
CC(=O)OCCCNc1cc(Sc2ccc(C)cc2)c2nonc2c1[N+](=O)[O-],Potency,[1],inactive
same,Potency,[2],inactive
Cc1nc2c(cc1C(=O)N/N=C/c1ccc(O)c(O)c1)c(=O)n(C)c(=O)n2C,Potency,[1],"inconclusive: 9.61 µM [inhibitor, partial curve]"
same,Potency,[2],"inconclusive: 27.1 µM [inhibitor, single point]"

# Pulled one by one from the list above:
smiles,measurement,setting,value
Cn1cnc([N+](=O)[O-])c1S(=O)(=O)Oc1cccc2ccccc12,Potency,[2],"inconclusive: 2.15 µM [inhibitor, full curve]"
COc1ccc(OC)c(NC(=O)COC(=O)CCc2nc3ccccc3c(=O)[nH]2)c1,Potency,[1],"inconclusive: 30.4 µM [inhibitor, partial curve, poor fit]"

# — PubChem BioAssay (NCATS)
